# Source: article PMC12629859
# The chains behind the UniProt entries cited, without tags or fusion partners. Where a name states a change or a piece, a line headed by the entry shows the natural chain unless it says otherwise.
# UniProt P07711: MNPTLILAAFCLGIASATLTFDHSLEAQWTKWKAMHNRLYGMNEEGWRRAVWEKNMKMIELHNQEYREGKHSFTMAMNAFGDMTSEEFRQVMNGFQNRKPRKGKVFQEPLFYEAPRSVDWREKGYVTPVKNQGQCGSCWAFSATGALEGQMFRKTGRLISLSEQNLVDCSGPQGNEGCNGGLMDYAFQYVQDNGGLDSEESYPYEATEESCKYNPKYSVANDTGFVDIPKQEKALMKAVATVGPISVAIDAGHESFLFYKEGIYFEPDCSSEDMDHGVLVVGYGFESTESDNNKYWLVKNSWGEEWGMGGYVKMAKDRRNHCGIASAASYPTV
# UniProt O00487: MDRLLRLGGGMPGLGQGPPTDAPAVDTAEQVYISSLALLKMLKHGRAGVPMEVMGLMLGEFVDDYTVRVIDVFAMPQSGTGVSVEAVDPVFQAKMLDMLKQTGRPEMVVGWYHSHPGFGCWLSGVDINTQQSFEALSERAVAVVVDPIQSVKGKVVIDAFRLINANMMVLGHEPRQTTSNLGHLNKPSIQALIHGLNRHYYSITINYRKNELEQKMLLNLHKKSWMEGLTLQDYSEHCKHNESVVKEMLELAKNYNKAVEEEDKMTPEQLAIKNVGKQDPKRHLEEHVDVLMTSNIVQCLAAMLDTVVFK
# No constants are given. Whether binding was seen depends on the method and setting. In cells and extracts the contact can be indirect. Here binding means that the protein was enriched with, or labelled near, the bait; the list need not be complete.
# Target: Flag-tagged overexpressed CTSL (FaDu cells) (UniProt P07711)
# Assay: affinity purification with mass spectrometry; Flag-tagged CTSL overexpressed in FaDu cells; lysate in IP lysis buffer, IP overnight at 4°C, elution by boiling or FLAG peptide, LC-MS/MS
molecule,measurement,value
"Ubiquitin-specific protease 20 (USP20), endogenous (from UniProt Q9Y2K6 1-914) (enzyme)",binding,binds
"POH1, endogenous (FaDu) (from UniProt O00487 1-310) (enzyme)",binding,binds
"USP36, endogenous (FaDu) (enzyme, UniProt Q9P275 1-1123) MPIVDKLKEALKPGRKDSADDGELGKLLASSAKKVLLQKIEFEPASKSFSYQLEALKSKYVLLNPKTEGASRHKSGDDPPARRQGSEHTYESCGDGVPAPQKVLFPTERLSLRWERVFRVGAGLHNLGNTCFLNATIQCLTYTPPLANYLLSKEHARSCHQGSFCMLCVMQNHIVQAFANSGNAIKPVSFIRDLKKIARHFRFGNQEDAHEFLRYTIDAMQKACLNGCAKLDRQTQATTLVHQIFGGYLRSRVKCSVCKSVSDTYDPYLDVALEIRQAANIVRALELFVKADVLSGENAYMCAKCKKKVPASKRFTIHRTSNVLTLSLKRFANFSGGKITKDVGYPEFLNIRPYMSQNNGDPVMYGLYAVLVHSGYSCHAGHYYCYVKASNGQWYQMNDSLVHSSNVKVVLNQQAYVLFYLRIPGSKKSPEGLISRTGSSSLPGRPSVIPDHSKKNIGNGIISSPLTGKRQDSGTMKKPHTTEEIGVPISRNGSTLGLKSQNGCIPPKLPSGSPSPKLSQTPTHMPTILDDPGKKVKKPAPPQHFSPRTAQGLPGTSNSNSSRSGSQRQGSWDSRDVVLSTSPKLLATATANGHGLKGNDESAGLDRRGSSSSSPEHSASSDSTKAPQTPRSGAAHLCDSQETNCSTAGHSKTPPSGADSKTVKLKSPVLSNTTTEPASTMSPPPAKKLALSAKKASTLWRATGNDLRPPPPSPSSDLTHPMKTSHPVVASTWPVHRARAVSPAPQSSSRLQPPFSPHPTLLSSTPKPPGTSEPRSCSSISTALPQVNEDLVSLPHQLPEASEPPQSPSEKRKKTFVGEPQRLGSETRLPQHIREATAAPHGKRKRKKKKRPEDTAASALQEGQTQRQPGSPMYRREGQAQLPAVRRQEDGTQPQVNGQQVGCVTDGHHASSRKRRRKGAEGLGEEGGLHQDPLRHSCSPMGDGDPEAMEESPRKKKKKKRKQETQRAVEEDGHLKCPRSAKPQDAVVPESSSCAPSANGWCPGDRMGLSQAPPVSWNGERESDVVQELLKYSSDKAYGRKVLTWDGKMSAVSQDAIEDSRQARTETVVDDWDEEFDRGKEKKIKKFKREKRRNFNAFQKLQTRRNFWSVTHPAKAASLSYRR",binding,binds
"USP8, endogenous (FaDu) (enzyme, UniProt P40818 1-1118) MPAVASVPKELYLSSSLKDLNKKTEVKPEKISTKSYVHSALKIFKTAEECRLDRDEERAYVLYMKYVTVYNLIKKRPDFKQQQDYFHSILGPGNIKKAVEEAERLSESLKLRYEEAEVRKKLEEKDRQEEAQRLQQKRQETGREDGGTLAKGSLENVLDSKDKTQKSNGEKNEKCETKEKGAITAKELYTMMTDKNISLIIMDARRMQDYQDSCILHSLSVPEEAISPGVTASWIEAHLPDDSKDTWKKRGNVEYVVLLDWFSSAKDLQIGTTLRSLKDALFKWESKTVLRNEPLVLEGGYENWLLCYPQYTTNAKVTPPPRRQNEEVSISLDFTYPSLEESIPSKPAAQTPPASIEVDENIELISGQNERMGPLNISTPVEPVAASKSDVSPIIQPVPSIKNVPQIDRTKKPAVKLPEEHRIKSESTNHEQQSPQSGKVIPDRSTKPVVFSPTLMLTDEEKARIHAETALLMEKNKQEKELRERQQEEQKEKLRKEEQEQKAKKKQEAEENEITEKQQKAKEEMEKKESEQAKKEDKETSAKRGKEITGVKRQSKSEHETSDAKKSVEDRGKRCPTPEIQKKSTGDVPHTSVTGDSGSGKPFKIKGQPESGILRTGTFREDTDDTERNKAQREPLTRARSEEMGRIVPGLPSGWAKFLDPITGTFRYYHSPTNTVHMYPPEMAPSSAPPSTPPTHKAKPQIPAERDREPSKLKRSYSSPDITQAIQEEEKRKPTVTPTVNRENKPTCYPKAEISRLSASQIRNLNPVFGGSGPALTGLRNLGNTCYMNSILQCLCNAPHLADYFNRNCYQDDINRSNLLGHKGEVAEEFGIIMKALWTGQYRYISPKDFKITIGKINDQFAGYSQQDSQELLLFLMDGLHEDLNKADNRKRYKEENNDHLDDFKAAEHAWQKHKQLNESIIVALFQGQFKSTVQCLTCHKKSRTFEAFMYLSLPLASTSKCTLQDCLRLFSKEEKLTDNNRFYCSHCRARRDSLKKIEIWKLPPVLLVHLKRFSYDGRWKQKLQTSVDFPLENLDLSQYVIGPKNNLKKYNLFSVSNHYGGLDGGHYTAYCKNAARQRWFKFDDHEVSDISVSSVKSSAAYILFYTSLGPRVTDVAT",binding,binds
"USP15, endogenous (FaDu) (enzyme, UniProt Q9Y4E8 1-981) MAEGGAADLDTQRSDIATLLKTSLRKGDTWYLVDSRWFKQWKKYVGFDSWDKYQMGDQNVYPGPIDNSGLLKDGDAQSLKEHLIDELDYILLPTEGWNKLVSWYTLMEGQEPIARKVVEQGMFVKHCKVEVYLTELKLCENGNMNNVVTRRFSKADTIDTIEKEIRKIFSIPDEKETRLWNKYMSNTFEPLNKPDSTIQDAGLYQGQVLVIEQKNEDGTWPRGPSTPKSPGASNFSTLPKISPSSLSNNYNNMNNRNVKNSNYCLPSYTAYKNYDYSEPGRNNEQPGLCGLSNLGNTCFMNSAIQCLSNTPPLTEYFLNDKYQEELNFDNPLGMRGEIAKSYAELIKQMWSGKFSYVTPRAFKTQVGRFAPQFSGYQQQDCQELLAFLLDGLHEDLNRIRKKPYIQLKDADGRPDKVVAEEAWENHLKRNDSIIVDIFHGLFKSTLVCPECAKISVTFDPFCYLTLPLPMKKERTLEVYLVRMDPLTKPMQYKVVVPKIGNILDLCTALSALSGIPADKMIVTDIYNHRFHRIFAMDENLSSIMERDDIYVFEININRTEDTEHVIIPVCLREKFRHSSYTHHTGSSLFGQPFLMAVPRNNTEDKLYNLLLLRMCRYVKISTETEETEGSLHCCKDQNINGNGPNGIHEEGSPSEMETDEPDDESSQDQELPSENENSQSEDSVGGDNDSENGLCTEDTCKGQLTGHKKRLFTFQFNNLGNTDINYIKDDTRHIRFDDRQLRLDERSFLALDWDPDLKKRYFDENAAEDFEKHESVEYKPPKKPFVKLKDCIELFTTKEKLGAEDPWYCPNCKEHQQATKKLDLWSLPPVLVVHLKRFSYSRYMRDKLDTLVDFPINDLDMSEFLINPNAGPCRYNLIAVSNHYGGMGGGHYTAFAKNKDDGKWYYFDDSSVSTASEDQIVSKAAYVLFYQRQDTFSGTGFFPLDRETKGASAATGIPLESDEDSNDNDNDIENENCMHTN",binding,binds
